Measurements reported in PubChem BioAssay AID1671195 (Yale University, 2021).

Purpose: 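Genes whose knockdown alters LDL uptake in liver cancer cells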 (primary screen)
Cell system: human Huh7 hepatoma cells
Knock-down reagent: siRNA pool against human genes, 18 nM
Duration: about 2 to 2.5 days of knockdown, then 8 h LDL uptake
Treatment: DiI-labelled LDL at 30 µg/ml for 8 h, in lipoprotein-deficient serum medium
Measurement: 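Per-cell DiI-LDL intensity by automated imaging; well means scaled to the plate median and given as a robust z-score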
Reading the numbers: robust z-score: higher = more LDL uptake after knockdown
Rule for the call: 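a gene counts as active if at least two replicate z-scores exceed ±2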
Here is a random part of about 22,000 reagents. In the full data, about 1,510 (6.9%) got an active call. 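Active includes knockdowns raising or lowering LDL uptake; positive z-scores mean more uptake, negative mean less.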

target | robust z-score, replicate 1 | robust z-score, replicate 2 | robust z-score, replicate 3 | Call
PNRC2 (GeneID 55629) | 3.56 | 2.26 | 0.322 | active
DCHS1 (GeneID 8642) | -1.72 | -1.16 | -1.25 | inactive
CHMP2A (GeneID 27243) | 0.102 | 1.68 | -0.337 | inactive
LOC441616 (retired record) (GeneID 441616) | 0.591 | 1.18 | 0.99 | inactive
OR52E4 (GeneID 390081) | 0.649 | 0.73 | 0.677 | inactive
TSR2 (GeneID 90121) | 0.0067 | 0.0388 | 0.666 | inactive
BAP1 (GeneID 8314) | -1.19 | -0.698 | -0.811 | inactive
NUTM2F (GeneID 54754) | 0.354 | -0.559 | -0.527 | inactive
CTNNA2 (GeneID 1496) | -0.0759 | 0.493 | 0.746 | inactive
CD1B (GeneID 910) | 0.197 | 0.0224 | 1.42 | inactive
LOC284931 (retired record) (GeneID 284931) | 2.28 | 2.56 | 2.33 | active
KRTAP9-4 (GeneID 85280) | 2.52 | 1.49 | 2.2 | active
PRDM10 (GeneID 56980) | -1.04 | -1.46 | -1.75 | inactive
OXA1L (GeneID 5018) | -0.405 | -0.287 | -0.186 | inactive
OR5K3 (GeneID 403277) | 0.726 | -1.4 | 0.771 | inactive
FXYD6 (GeneID 53826) | -0.319 | -0.0898 | 0.157 | inactive
CCL16 (GeneID 6360) | 0.08 | 1.04 | 0.824 | inactive
LOC442350 (retired record) (GeneID 442350) | 0.408 | 0.317 | 1.24 | inactive
MAGEB3 (GeneID 4114) | 0.183 | -0.11 | -0.2 | inactive
LOC441995 (retired record) (GeneID 441995) | 0.131 | 0.449 | 0.845 | inactive
OR2AG1 (GeneID 144125) | 0.161 | 0.497 | 0.329 | inactive
PCDHB14 (GeneID 56122) | -1.28 | -1.14 | -1.24 | inactive
TAX1BP1 (GeneID 8887) | -0.535 | -0.027 | 0.194 | inactive
ACADM (GeneID 34) | 0.733 | 0.076 | 0.348 | inactive
IFNA7 (GeneID 3444) | -1.13 | -1.42 | -0.55 | inactive
MYO1H (GeneID 283446) | 0.0823 | 0.203 | 0.0263 | inactive
OMP (GeneID 4975) | 0.203 | 0.677 | 0.0386 | inactive
PHRF1 (GeneID 57661) | 0.352 | -0.622 | -0.841 | inactive
OGFOD1 (GeneID 55239) | -0.422 | 0.947 | -0.979 | inactive
DUX1 (GeneID 26584) | 1.61 | 0.743 | 0.55 | inactive
VDAC3 (GeneID 7419) | -2.13 | -2.07 | -2.21 | active
IL13 (GeneID 3596) | 0.537 | 1.08 | 2.79 | inactive
TECTA (GeneID 7007) | 0.068 | 1.89 | 3.02 | inactive
SEC24A (GeneID 10802) | -0.384 | 0.565 | -1.36 | inactive
DAG1 (GeneID 1605) | 0.67 | 0.925 | 0.297 | inactive
LOC402221 (GeneID 402221) | -1.09 | -0.91 | -1.19 | inactive
XIRP1 (GeneID 165904) | -0.808 | -0.379 | -0.607 | inactive
NNAT (GeneID 4826) | -1.13 | -1.46 | -0.72 | inactive
ATPAF2 (GeneID 91647) | 0.938 | 0.824 | 0.279 | inactive
LOC440996 (retired record) (GeneID 440996) | 0.289 | 1.25 | 0.903 | inactive
ANO10 (GeneID 55129) | -0.00177 | 1.76 | 0.115 | inactive
CXCR6 (GeneID 10663) | 0.301 | -0.488 | 1.22 | inactive
SNX14 (GeneID 57231) | 0.292 | -0.109 | 0.264 | inactive
LOC391025 (retired record) (GeneID 391025) | -1.21 | -1.12 | -0.863 | inactive
ANGPTL5 (GeneID 253935) | -1.48 | -1.14 | -0.0548 | inactive
OR4C45 (GeneID 403257) | -0.235 | 0.409 | 0.799 | inactive
UBR3 (GeneID 130507) | 0.206 | 0.488 | -1.33 | inactive
CYMP-AS1 (GeneID 440602) | -0.0554 | 0.258 | 1.12 | inactive
ZNF385D (GeneID 79750) | 0.847 | 0.449 | -0.294 | inactive
CZ1P-ASNS (GeneID 107986827) | 1.78 | 0.748 | 1.04 | inactive
CCR4 (GeneID 1233) | 1.68 | 1.72 | 1.41 | inactive
LRRTM4 (GeneID 80059) | 1.18 | 1.28 | 1.4 | inactive
MAGEB1 (GeneID 4112) | -1.88 | -1.61 | -2.05 | inactive
SSTR2 (GeneID 6752) | 0.647 | 0.518 | 0.734 | inactive
COL17A1 (GeneID 1308) | -0.278 | 0.169 | -0.411 | inactive
GSTT1 (GeneID 2952) | 0.0818 | 0.171 | -0.145 | inactive
TMEM52 (GeneID 339456) | 1.3 | 1.61 | 1.62 | inactive
REPIN1 (GeneID 29803) | 1.57 | 1.46 | 0.708 | inactive
CD300LD (GeneID 100131439) | -1.7 | -1.82 | -1.49 | inactive
OR4D11 (GeneID 219986) | -0.238 | -0.287 | -0.588 | inactive
EGFLAM (GeneID 133584) | -0.278 | -0.976 | -2.28 | inactive
BTN2A3P (GeneID 54718) | 0.345 | 0.0919 | 0.325 | inactive
TENT4A (GeneID 11044) | 0.104 | -0.462 | -1.01 | inactive
LOC392550 (retired record) (GeneID 392550) | -1.3 | -0.856 | -1.06 | inactive
ARHGAP24 (GeneID 83478) | 3.62 | 1.57 | 1.69 | inactive
ARNT (GeneID 405) | 0.387 | 0.506 | 0.628 | inactive
AATF (GeneID 26574) | 0.141 | 0.0166 | -0.103 | inactive
DEFB1 (GeneID 1672) | 0.488 | 0.724 | -0.563 | inactive

3 entries from above, reformatted:
target,"robust z-score, replicate 1","robust z-score, replicate 2","robust z-score, replicate 3",Call
CTNNA2 (GeneID 1496),-0.0759,0.493,0.746,inactive
CD1B (GeneID 910),0.197,0.0224,1.42,inactive
LOC284931 (retired record) (GeneID 284931),2.28,2.56,2.33,active
